Results are given in words; binding and its absence hold for the method and conditions named. In cells and extracts the contact can be indirect. A result given as binding can be weak or reduced; the word gives no strength. Where a sequence is shown, tags or fusion partners need not be part of it.
Target: GST-SEC62 (UniProt Q99442)
Assay: pull-down; GST or GST-SEC62 on glutathione-Sepharose beads; 20 mM HEPES pH 7.5, 5 mM MgCl2, 0.5 mM EDTA, 0.05% NP40, 1 mM DTT, 130 mM KCl, 0.2 mg/ml BSA; 1 mg FLAG-SEMA6A-transfected cell lysate added, room temperature 1 h; immunoblot; only the target purified

The chains behind the UniProt entries cited, without tags or fusion partners. Where a name states a change or a piece, a line headed by the entry shows the natural chain unless it says otherwise.
UniProt Q99442: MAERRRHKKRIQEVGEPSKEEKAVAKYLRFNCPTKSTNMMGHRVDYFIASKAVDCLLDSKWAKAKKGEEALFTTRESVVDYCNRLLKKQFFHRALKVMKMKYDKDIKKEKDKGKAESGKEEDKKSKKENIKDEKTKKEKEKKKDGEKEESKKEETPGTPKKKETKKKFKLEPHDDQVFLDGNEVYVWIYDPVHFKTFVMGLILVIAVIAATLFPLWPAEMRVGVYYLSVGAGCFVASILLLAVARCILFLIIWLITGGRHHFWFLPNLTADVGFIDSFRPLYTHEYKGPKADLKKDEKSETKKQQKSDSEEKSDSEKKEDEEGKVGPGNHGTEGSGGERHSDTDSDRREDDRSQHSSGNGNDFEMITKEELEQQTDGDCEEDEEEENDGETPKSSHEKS

binding: binds
B1: FLAG-SEMA6A (protein, UniProt Q9H2E6 19-1030)
chain: GFPEDSEPISISHGNYTKQYPVFVGHKPGRNTTQRHRLDIQMIMIMNGTLYIAARDHIYTVDIDTSHTEEIYCSKKLTWKSRQADVDTCRMKGKHKDECHNFIKVLLKKNDDALFVCGTNAFNPSCRNYKMDTLEPFGDEFSGMARCPYDAKHANVALFADGKLYSATVTDFLAIDAVIYRSLGESPTLRTVKHDSKWLKEPYFVQAVDYGDYIYFFFREIAVEYNTMGKVVFPRVAQVCKNDMGGSQRVLEKQWTSFLKARLNCSVPGDSHFYFNILQAVTDVIRINGRDVVLATFSTPYNSIPGSAVCAYDMLDIASVFTGRFKEQKSPDSTWTPVPDERVPKPRPGCCAGSSSLERYATSNEFPDDTLNFIKTHPLMDEAVPSIFNRPWFLRTMVRYRLTKIAVDTAAGPYQNHTVVFLGSEKGIILKFLARIGNSGFLNDSLFLEEMSVYNSEKCSYDGVEDKRIMGMQLDRASSSLYVAFSTCVIKVPLGRCERHGKCKKTCIASRDPYCGWIKEGGACSHLSPNSRLTFEQDIERGNTDGLGDCHNSFVALNGHSSSLLPSTTTSDSTAQEGYESRGGMLDWKHLLDSPDSTDPLGAVSSHNHQDKKGVIRESYLKGHDQLVPVTLLAIAVILAFVMGAVFSGITVYCVCDHRRKDVAVVQRKEKELTHSRRGSMSSVTKLSGLFGDTQSKDPKPEAILTPLMHNGKLATPGNTAKMLIKADQHHLDLTALPTPESTPTLQQKRKPSRGSREWERNQNLINACTKDMPPMGSPVIPTDLPLRASPSHIPSVVVLPITQQGYQHEYVDQPKMSEVAQMALEDQAATLEYKTIKEHLSSKSPNHGVNLVENLDSLPPKVPQREASLGPPGASLSQTGLSKRLEMHHSSSYGVDYKRSYPTNSLTRSHQATTLKRNNTNSSNSSHLSRNQSFGRGDNPPPAPQRVDSIQVHSSQPSGQAVTVSRQPSLNAYNSLTRSGLKRTPSLKPDVPPKPSFAPLSTSMKPNDACT
